# Data: patent publication EP1412028B1, “TETRAHYDROINDOLONE DERIVATIVES LINKED TO ARYLPIPERAZINES” (Spectrum Pharmaceuticals, Inc., priority 2001, dated 2003)
# Tested on: Caco-2 cells
# Settings: human
structure (smiles),measurement,value
"CC(C)NCC(O)COc1ccc(CC(N)=O)cc1 (stereo not shown) [Atenolol, reference compound]",Papp AP- to- BL,1.3±0.2 cm/s x 10^6
